Laboratory results published in patent US10640545B2 (THE GOVERNORS OF THE UNIVERSITY OF ALBERTA, priority 2017, dated 2020).
At least one peptide structure holds a part that was inferred or is arguable (an end, a ring closure or a residue). Where a SMILES comes first, the peptide text is derived from it. [ ]: non-standard residue; d: D form. The star is where a group is joined. Phe(4-Br) = N[C@@H](Cc1ccc(Br)cc1)C(=O)O; Fmoc = O=C(OCC1c2ccccc2-c2ccccc21)*; PEG6 = NCCOCCOCCOCCOCCOCCOCCC(=O)O; NMeL = CN[C@@H](CC(C)C)C(=O)O; Nle = CCCC[C@H](N)C(=O)O; Aib = CC(C)(N)C(=O)O

System: anesthetized mice
Assay: Blood pressure assay in anesthetized mice
Assay type: in vivo
Conditions: 1.4 μM/kg body weight injected, SBP, DBP, MABP
Experimental: Synthetic peptides 8-19 were tested for blood pressure lowering abilities in anesthetized mice. Apelin peptides were injected through […], monitoring blood pressure (BP) and heart rate (HR) over 60 minutes.
Mice were anaesthetized with 1.5% isoflurane/oxygen, and body temperature was monitored and maintained at 36° C. by a heating pad. The aorta was cannulated via the right carotid artery using a PV loop catheter (Model 1.2F from Scisense, Transonic) in order to continuously record arterial blood pressure and heart rate (LabScribe 2.0, Scisense). […] Results are reported as systolic blood pressure (SBP), diastolic blood pressure (DBP), mean arterial blood pressure (MABP) and heart rate (HR).
Apelin peptides 11, 56-59 as well as the KLKB1-cleavage fragments 54 and 55 were tested for blood pressure lowering abilities in anesthetized mice.
Mice were anesthetized with 1.5% isoflurane/oxygen, and body temperature was monitored and maintained at 36° C. by a heating pad. […]
Apelin peptides were delivered systemically via the right internal jugular vein while blood pressure (BP) and heart rate (HR) were continuously monitored in the aorta cannulated via the right carotid artery. […]

Structure (SMILES) | blood pressure lowering (hypotensive) effect
CCCC[C@H](NC(=O)[C@@H]1CCCN1C(=O)CNC(=O)[C@H](CCCCN)NC(=O)[C@H](Cc1c[nH]cn1)NC(=O)[C@H](CO)NC(=O)[C@H](CC(C)C)NC(=O)[C@H](CCCNC(=N)N)NC(=O)[C@@H]1CCCN1C(=O)[C@H](CCCNC(=N)N)NC(=O)[C@H](CCC(N)=O)NC(=O)[C@H](CCCNC(=N)N)NC(=O)[C@H](CCCNC(=N)N)NC(=O)[C@H](Cc1ccccc1)NC(=O)[C@H](CCCCN)NC(=O)CCOCCOCCOCCOCCOCCOCCNC(=O)OCC1c2ccccc2-c2ccccc21)C(=O)NC(C)(C)C(=O)N[C@@H](Cc1ccc(Br)cc1)C(=O)O [Peptide 57] ({Fmoc-PEG6}-KFRRQRPRLSHKGP[Nle][Aib][Phe(4-Br)]-OH; C-terminus assumed) | more potent than apelin-17 (2) and apelin-17A2 (5)
CCCC[C@H](NC(=O)[C@@H]1CCCN1C(=O)CNC(=O)[C@H](CCCCN)NC(=O)[C@H](Cc1c[nH]cn1)NC(=O)[C@H](CO)NC(=O)[C@H](CC(C)C)N(C)C(=O)[C@H](CCCNC(=N)N)NC(=O)[C@@H]1CCCN1C(=O)[C@H](CCCNC(=N)N)NC(=O)[C@H](CCC(N)=O)NC(=O)[C@H](CCCNC(=N)N)NC(=O)[C@H](CCCNC(=N)N)NC(=O)[C@H](Cc1ccccc1)NC(=O)[C@H](CCCCN)NC(=O)CCOCCOCCOCCOCCOCCOCCNC(=O)OCC1c2ccccc2-c2ccccc21)C(=O)NC(C)(C)C(=O)N[C@@H](Cc1ccc(Br)cc1)C(=O)O [Peptide 59] ({Fmoc-PEG6}-KFRRQRPR[NMeL]SHKGP[Nle][Aib][Phe(4-Br)]-OH; C-terminus assumed) | more potent than apelin-17 (2) and apelin-17A2 (5)
